No constants are given. Whether binding was seen depends on the method and setting. Binding seen in cells or lysates may run through a third protein. Some results given as binding are weak or reduced against the parent protein; the word gives no strength.

The chains behind the UniProt entries cited, without tags or fusion partners. Residues count along the entry.
UniProt P62813, residues 28-455: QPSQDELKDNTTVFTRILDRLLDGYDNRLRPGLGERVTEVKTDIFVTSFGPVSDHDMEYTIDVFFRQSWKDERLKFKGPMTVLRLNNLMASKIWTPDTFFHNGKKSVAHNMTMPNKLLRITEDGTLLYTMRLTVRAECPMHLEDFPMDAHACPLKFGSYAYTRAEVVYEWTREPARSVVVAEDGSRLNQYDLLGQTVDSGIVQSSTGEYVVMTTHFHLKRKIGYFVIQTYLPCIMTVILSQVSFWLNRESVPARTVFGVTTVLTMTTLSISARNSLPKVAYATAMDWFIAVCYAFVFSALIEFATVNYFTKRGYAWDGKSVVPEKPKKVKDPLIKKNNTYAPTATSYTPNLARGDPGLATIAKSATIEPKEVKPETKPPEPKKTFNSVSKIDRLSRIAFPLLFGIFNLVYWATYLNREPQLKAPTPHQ

This is an account of results in paper PMC5886308.

The target in test [1] is GABAAR myc-alpha 1 subunit (UniProt P62813). The experiment in a line: co-IP; HEK293T cells co-transfected; soluble extracts in modified RIPA buffer incubated overnight at 4°C with anti-myc (10 μg/ml), protein A agarose beads; non-immune IgG as control.
In test [2] the target is GABAAR myc-alpha 1 subunit in combination with beta 2 and gamma 2 subunits (UniProt P62813). The description is as above.

B1: truncated PCDH19 (PCDH19Δ879) (domain or fragment, UniProt Q8TAB3 22-879)
chain: LINLKYSVEEEQRAGTVIANVAKDAREAGFALDPRQASAFRVVSNSAPHLVDINPSSGLLVTKQKIDRDLLCRQSPKCIISLEVMSSSMEICVIKVEIKDLNDNAPSFPAAQIELEISEAASPGTRIPLDSAYDPDSGSFGVQTYELTPNELFGLEIKTRGDGSRFAELVVEKSLDRETQSHYSFRITALDGGDPPRLGTVGLSIKVTDSNDNNPVFSESTYAVSVPENSPPNTPVIRLNASDPDEGTNGQVVYSFYGYVNDRTRELFQIDPHSGLVTVTGALDYEEGHVYELDVQAKDLGPNSIPAHCKVTVSVLDTNDNPPVINLLSVNSELVEVSESAPPGYVIALVRVSDRDSGLNGRVQCRLLGNVPFRLQEYESFSTILVDGRLDREQHDQYNLTIQARDGGVPMLQSAKSFTVLITDENDNHPHFSKPYYQVIVQENNTPGAYLLSVSARDPDLGLNGSVSYQIVPSQVRDMPVFTYVSINPNSGDIYALRSFNHEQTKAFEFKVLAKDGGLPSLQSNATVRVIILDVNDNTPVITAPPLINGTAEVYIPRNSGIGYLVTVVKAEDYDEGENGRVTYDMTEGDRGFFEIDQVNGEVRTTRTFGESSKSSYELIVVAHDHGKTSLSASALVLIYLSPALDAQESMGSVNLSLIFIIALGSIAGILFVTMIFVAIKCKRDNKEIRTYNCSNCLTITCLLGCFIKGQNSKCLHCISVSPISEEQDKKTEEKVSLRGKRIAEYSYGHQKKSSKKKKISKNDIRLVPRDVEETDKMNVVSCSSLTSSLNYFDYHQQTLPLGCRRSESTFLNVENQNTRNTSANHIYHHSFNSQGPQQPDLIINGVPLPETENYSFD
On to B1, for which the binding entry in test [1] and in test [2] was “binds” throughout.

B2: delta protocadherin PCDH9 (protein, UniProt Q9HC56 24-1237)
chain: QELIYTIREELPENVPIGNIPKDLNISHINAATGTSASLVYRLVSKAGDAPLVKVSSSTGEIFTTSNRIDREKLCAGASYAEENECFFELEVVILPNDFFRLIKIKIIVKDTNDNAPMFPSPVINISIPENTLINSRFPIPSATDPDTGFNGVQHYELLNGQSVFGLDIVETPEGEKWPQLIVQQNLDREQKDTYVMKIKVEDGGTPQKSSTAILQVTVSDVNDNRPVFKEGQVEVHIPENAPVGTSVIQLHATDADIGSNAEIRYIFGAQVAPATKRLFALNNTTGLITVQRSLDREETAIHKVTVLASDGSSTPARATVTINVTDVNDNPPNIDLRYIISPINGTVYLSEKDPVNTKIALITVSDKDTDVNGKVICFIEREVPFHLKAVYDNQYLLETSSLLDYEGTKEFSFKIVASDSGKPSLNQTALVRVKLEDENDNPPIFNQPVIELSVSENNRRGLYLTTISATDEDSGKNADIVYQLGPNASFFDLDRKTGVLTASRVFDREEQERFIFTVTARDNGTPPLQSQAAVIVTVLDENDNSPKFTHNHFQFFVSENLPKYSTVGVITVTDADAGENKAVTLSILNDNDNFVLDPYSGVIKSNVSFDREQQSSYTFDVKATDGGQPPRSSTAKVTINVMDVNDNSPVVISPPSNTSFKLVPLSAIPGSVVAEVFAVDVDTGMNAELKYTIVSGNNKGLFRIDPVTGNITLEEKPAPTDVGLHRLVVNISDLGYPKSLHTLVLVFLYVNDTAGNASYIYDLIRRTMETPLDRNIGDSSQPYQNEDYLTIMIAIIAGAMVVIVVIFVTVLVRCRHASRFKAAQRSKQGAEWMSPNQENKQNKKKKRKKRKSPKSSLLNFVTIEESKPDDAVHEPINGTISLPAELEEQSIGRFDWGPAPPTTFKPNSPDLAKHYKSASPQPAFHLKPDTPVSVKKHHVIQELPLDNTFVGGCDTLSKRSSTSSDHFSASECSSQGGFKTKGPLHTRQCNSHSKSDNIPVTPQKCPSSTGFHIQENEESHYESQRRVTFHLPDGSQESCSDSGLGDHEPVGSGTLISHPLPLVQPQDEFYDQASPDKRTEADGNSDPNSDGPLGPRGLAEATEMCTQECLVLGHSDNCWMPPGLGPYQHPKSPLSTFAPQKEWVKKDKLVNGHTLTRAWKEDSNRNQFNDRKQYGSNEGHFNNGSHMTDIPLANLKSYKQAGGATESPKEHQL
Regarding B2, the binding entry in test [1] and in test [2] was “no binding” in each case.
